The name of at least one read-out is uncertain.
Test: YEAK in serum of mice after IV or SC dosing, detected by anti-YEAK ELISA
Assay type: in vivo
Conditions: SC 21 mg/kg vs IV 4 mg/kg

In the case of glatiramer acetate [Copaxone], the “estimated bioavailability SC as compared to IV” value is reported as 12%.
